Reference: PubChem BioAssay AID1259415 (National Center for Advancing Translational Sciences (NCATS), 2018)
Screen size: about 410,000 compounds; about 18,000 (4.4%) were called active. The inconclusive results got no clear call from the source; some entries with a clear call stand among them for comparison. Rule as the data show it: active = activity change below about -60%; inconclusive = no clear call, values can overlap the other calls; inactive = above about -39%.

Test: qHTS Assay for inhibitors of the human cytomegalovirus (HCMV)
Details: HFF cells, HCMV-luciferase reporter, 72 h; at 57.5 µM; active compounds read low
How it was run: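 After 16 h attachment at 37C, HFF cells received test compound and HCMV-luciferase (1 PFU/cell); reporter luminescence read 72 h later, data normalized against buffer-only and known inhibitor Salinomycin.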
% is scaled to controls: 0 for no effect and ±100 for the full control effect.

| SMILES | activity change, negative = inhibition |
| --- | --- |
| C#CCN(C[C@@H]1[C@@H](OC(=O)NCC2CCCCC2)[C@@H](OC(=O)NCC2CCCCC2)CN(C(=O)OC(C)C)N1C(=O)OC(C)C)S(=O)(=O)c1ccc(C)cc1 | inconclusive: -47.5% |
| Cc1onc(-c2ccccc2)c1CNS(=O)(=O)c1cccc(Cl)c1 | inconclusive: -43% |
| Cc1ccc(S(=O)(=O)N(CC(=O)NCc2ccco2)Cc2ccccc2F)cc1 | inconclusive: -45.2% |
| c1ccc2nc(-c3ccc(-n4ccnc4)cc3)ccc2c1 | inconclusive: -53.3% |
| COc1ccc(C(C(=O)NCc2ccccc2)N(Cc2ccco2)C(=O)c2snc(C(N)=O)c2N)cc1OC (centres undefined) | inconclusive: -49.7% |
| O=C(CCC(=O)N1CCN(c2ccccc2F)CC1)N1CCN(c2ccc(F)cc2)CC1 | active: -62.3% |
| COc1ccc(CNC(=O)CNC(=O)[C@@H]2Cc3ccccc3CN2)cc1 | inconclusive: 0% |
| N#C/C(=C/c1ccc(N2CCOCC2)o1)c1nc2ccccc2[nH]1 | inactive: 107% |
| COc1ccc(/C=C(/C(=O)c2cccs2)N2C=CC=CC2=C(C#N)C#N)cc1 | active: -60.1% |
| CC(C)NC(=O)C1CCN(C(=O)N2CCOc3ccc(Cl)cc32)CC1 | inactive: 4.25% |
| Cc1cc(=O)[nH]c(SCC(=O)Nc2ccccc2C)n1 | inconclusive: -42.1% |
| N#Cc1cnn(-c2cc(Cl)ccc2Cl)c1N | inactive: -15.7% |
| Cc1ccc(NC(=O)CSc2nnc(C3COc4ccccc4O3)o2)c(Cl)c1 (centres undefined) | inconclusive: -42.1% |
| CC(C)(C)C(=O)CSc1nc2ccsc2c(=O)n1Cc1ccccc1F | inconclusive: -44.5% |
| N=C1/C(=C\c2ccc(OC(=O)c3ccc(F)cc3)cc2)C(=O)N=C2SC(N3CCOCC3)=NN12 | inconclusive: -45.4% |
| COc1ccc(Cl)cc1NC(=O)COc1ccc(S(=O)(=O)N2CCOCC2)cc1C | inconclusive: -52.5% |
| Cc1ccc(S(=O)(=O)CCC(=O)OCc2nnc(-c3ccccc3Br)o2)cc1 | inconclusive: -40.7% |
| CS(=O)(=O)c1ccc(C(=O)Nc2ccc(-c3nc4ccccc4[nH]3)cc2)cc1 | inactive: -2.15% |
| CCC(=O)Nc1nc2ccccc2n1Cc1ccc(C)cc1 | inconclusive: -41.5% |
| CCCNC(=O)C1(C)CCCN(C(=O)c2ccccc2OC(F)(F)F)C1 (centres undefined) | inconclusive: -58.5% |
| COc1ccc(-c2cc3ccccc3oc2=O)cc1NC(=O)c1ccc([N+](=O)[O-])o1 | active: -65.6% |

Individual results from the list:
Entry for Cc1onc(-c2ccccc2)c1CNS(=O)(=O)c1cccc(Cl)c1 under activity change, negative = inhibition: inconclusive: -43%
Entry for COc1ccc(-c2cc3ccccc3oc2=O)cc1NC(=O)c1ccc([N+](=O)[O-])o1 under activity change, negative = inhibition: active: -65.6%
Entry for N#Cc1cnn(-c2cc(Cl)ccc2Cl)c1N under activity change, negative = inhibition: inactive: -15.7%
Entry for COc1ccc(Cl)cc1NC(=O)COc1ccc(S(=O)(=O)N2CCOCC2)cc1C under activity change, negative = inhibition: inconclusive: -52.5%
Entry for CCC(=O)Nc1nc2ccccc2n1Cc1ccc(C)cc1 under activity change, negative = inhibition: inconclusive: -41.5%

(list continues)

| SMILES | activity change, negative = inhibition |
| --- | --- |
| Cc1c(C(=O)NCc2cccnc2)oc2ccc(S(=O)(=O)N3CCC4(CC3)OCCO4)cc12 | inconclusive: -40.1% |
| CCOC(=O)C(=NC(C)C)NNc1cc(Cl)ccc1Cl | inconclusive: -41.6% |
| CCN1CCN(C(=O)c2sc3nc(C)nc(N4CCC(C)CC4)c3c2C)CC1 | inconclusive: -40.4% |
| COc1ccc(CNC(=O)c2oc3ccc(S(=O)(=O)N4CCOCC4)cc3c2C)cc1 | inconclusive: -45.3% |
| C[C@H](NC(=O)c1nc[nH]c1C(=O)OCc1ccccc1)c1ccccc1 | inconclusive: -41.9% |
| CN(CC1COc2ccccc2O1)C(=O)c1ccc(Cl)c(S(=O)(=O)N2CCCCCC2)c1 (centres undefined) | inconclusive: -45.3% |
| Cc1cc(C(=O)c2ccc(C(C)(C)C)cc2)c(NC(=O)CCl)s1 | active: -65% |
| COc1cccc(CN2CCN(C(c3ccccc3)c3ccccc3)CC2)c1O | inactive: 51.5% |
| Ic1ccccc1CN[C@@H]1C2CCN(CC2)[C@@H]1C(c1ccccc1)c1ccccc1 | active: -98.6% |
| CCOC(=O)c1c(C)oc2nc(C)nc(N3CCN(c4ccccc4)CC3)c12 | inconclusive: -41.1% |
| O=C(NCC(=O)N1CCCC(C(F)(F)F)C1)c1ccc(Oc2ccccc2)cc1 (centres undefined) | inactive: -19.8% |
| Clc1cccc(Nc2ncnc3ccc(Br)cc23)c1 | active: -62.5% |
| Cc1nn(C)cc1S(=O)(=O)N1CCN(c2ccccc2F)CC1 | inconclusive: -57.3% |
| O=C(O)CCNc1ccc(NCCC(=O)O)c2c1C(=O)c1ccccc1C2=O | active: -71.9% |
| COc1ccc(-c2cnnc(N/N=C/c3ccc(O)cc3)n2)cc1 | active: -70.9% |
| COc1ccc(CCCNC(=O)C2(C)Cc3c(-c4ccc(NC(C)=O)cc4)ccnc3O2)cc1 (centres undefined) | inactive: -7.29% |
| CC(=O)N1CCOc2ccc(S(=O)(=O)NC[C@H]3O[C@@H](n4ccc(=O)[nH]c4=O)[C@H](O)[C@@H]3O)cc21 | inactive: 8.15% |
| Cc1ccc(S(=O)(=O)Nc2cccc(C(=O)NC3CCN(Cc4ccccc4)CC3)c2)cc1F | inconclusive: -59.2% |
| COc1ccc(OCC(=O)Nc2ccc3c(c2)nc(CCN2CCCCC2)n3C)cc1 | inconclusive: -45.4% |
| N/C(=N\OC(=O)CC1CCCCC1)c1ccc(Br)cc1 | inconclusive: -53.3% |
| COc1cccc(N2C(=O)N(CC(=O)NCc3cccc(OC)c3OC)c3ccccc3S2(=O)=O)c1 | inconclusive: -40.2% |

| SMILES | activity change, negative = inhibition |
| --- | --- |
| Oc1ccccc1C1=Nc2ccccc2N=C(c2ccco2)C1 | inconclusive: -45.4% |
| O=C(NCC1OCCc2ccccc21)c1ccc(NC(=O)c2ccc(Cl)cc2)cc1 (centres undefined) | active: -82.1% |
| Cc1ccc(O)c(-n2nc3ccccc3n2)c1 | inactive: 33.4% |
| COc1cc(Nc2cc3c(cn2)cc(-c2cnn(C)c2)n3Cc2ccccc2)cc(OC)c1OC | active: -74.5% |
| Cc1cccc(CN2CCN(C3CN(Cc4cn(Cc5ccccc5)nn4)S(=O)(=O)C3)CC2)c1 (centres undefined) | inactive: 0.434% |
| Cc1ccc(S(=O)(=O)Oc2ccc(/C=N/NC(=O)c3nn(C)cc3Cl)cc2)cc1 | inconclusive: -46% |
| COc1ccc(C#Cc2cnc3c(c2)C(=O)N([C@H](C)CO)C[C@@H](C)[C@H](CN(C)C(=O)CN(C)C)O3)cc1 | inactive: 11.4% |
| CC1CCN(CC(O)COC2CC(C)CCC2C(C)C)CC1 (centres undefined) | inconclusive: -45% |
| Cc1ccc2nc(CSc3nnc(NC(=O)c4cccc(Br)c4)s3)cc(=O)n2c1 | inactive: -20.3% |
| O=C(Cn1c(=O)n2ncnc2c2c3c(sc21)CCCC3)c1ccccc1 | inconclusive: -40.3% |
| COc1cc(NC(=S)NCC2CCCO2)c(OC)cc1Cl (centres undefined) | inconclusive: -48% |
| Cc1cccc(-n2c(SCC(N)=O)nc3c(c2=O)C2(CCCCC2)Cc2ccccc2-3)c1 | active: -70.4% |
| COC(=O)c1c(N)sc(C(=O)NCCc2ccccc2)c1C | inconclusive: -47.4% |
| C=CCNC(=O)NC(=O)CN1C(=O)NC(c2ccccc2)(c2ccccc2)C1=O | inactive: 13% |
| C=CCN(c1ccc(C(=O)Nc2ccc3c(c2)OCO3)cc1)S(C)(=O)=O | inconclusive: -44% |
| Cc1[nH]n(-c2ccccc2)c(=O)c1N=Nc1ccccc1O | active: -99.2% |
| CCOc1ccc(CCNC(=O)c2csc3c2CCCCC3)cc1 | inactive: -5.3% |
| Cc1ccccc1OCc1nc(-c2ccc(-n3cccc3)cc2)no1 | inconclusive: -49.3% |
| O=C(NCC(=O)N(Cc1ccc(F)cc1)C(C(=O)NCC1CCCO1)c1ccccc1)c1ccco1 (centres undefined) | inconclusive: -43.4% |
| S=C(NC1CCCC1)NC1CC1 | inconclusive: -47.9% |
| COc1cc(S(=O)(=O)N2CCN(c3ccccc3F)CC2)c(OC)cc1Cl | inconclusive: -47.2% |

| SMILES | activity change, negative = inhibition |
| --- | --- |
| Cc1ccc(S(=O)(=O)N(CC(=O)Nc2cccc([N+](=O)[O-])c2)C2CCCCC2)cc1 | inconclusive: -47.6% |
| Cc1cc([N+](=O)[O-])nn1CCC(=O)Nc1nccs1 | inconclusive: -42.8% |
| Cc1nc(-c2cccc(NC(=O)c3ccc(-n4cccn4)cc3)c2)cs1 | inconclusive: 0% |
| Cc1ccc(S(=O)(=O)N/N=C\c2ccccc2OCc2ccccc2)cc1 | active: -74.4% |
| O=C(Cn1cc[n+](Cc2ccccc2)c1)c1ccc([N+](=O)[O-])cc1 | inconclusive: -59.7% |
| O=c1[nH]c2ccccc2nc1-c1ccc(Cl)cc1 | inactive: 98.3% |
| O=c1c2ccccc2ncn1-c1ccc([N+](=O)[O-])cc1[N+](=O)[O-] | inconclusive: -43.9% |
| COc1ccc(/C=C\c2onc(C)c2S(=O)(=O)N2CCC(C(=O)Nc3cccc(Cl)c3)CC2)cc1 | inconclusive: -47.9% |
| COc1ccccc1NC(=O)CSc1nnc2c3ccccc3n(C(C)C)c2n1 | active: -60.9% |
| CCOC(=O)N1CCN(c2ncc3c(n2)CC(c2ccccc2O)CC3=O)CC1 (centres undefined) | inconclusive: -45.8% |
| Clc1cccc(N/N=C/c2ccc(N3CCOCC3)s2)c1 | active: -82.6% |
| O=C(O)CC(C(=O)O)N1C(=O)/C(=C/C=C/c2ccco2)SC1=S (centres undefined) | inconclusive: -52.6% |
| O=C(Nc1ccc(F)c(Cl)c1)C1Cc2c(-c3ccco3)ccnc2O1 (centres undefined) | inconclusive: -60% |
| Cc1noc2ncnc(N3CCCCC3)c12 | inactive: 2.43% |
| O=C(CN1C(=O)C2CC=CCC2C1=O)Nc1nc2ccccc2[nH]1 (centres undefined) | inconclusive: -49% |
| COc1cc2[nH]c3c(N4CCN(c5ccc(Cl)cc5)CC4)ncnc3c2cc1OC | inconclusive: -43.5% |
| Cc1cc(OC(=O)c2ccc(Cl)cc2Cl)c([N+](=O)[O-])c(=O)[nH]1 | inconclusive: -58.1% |
| CCN(CC)S(=O)(=O)c1ccc(N/N=C(\C)c2ccc3c(c2)OCO3)c([N+](=O)[O-])c1 | inactive: -0.17% |
| CCOc1cccc(C(=O)Nc2ccc3oc(-c4cccnc4)nc3c2)c1 | inconclusive: -44.8% |
| CN(CCOc1ccc(Cl)cc1)C(=O)c1cc([N+](=O)[O-])ccc1N1CCOCC1 | inconclusive: -40.2% |
| COc1ccccc1NS(=O)(=O)c1cc(N2Cc3ccccc3C2=N)ccc1N1CCOCC1 | inconclusive: -40.6% |
